This note sets out measurements from publication PMC4294777.

Results are given in words; binding and its absence hold for the method and conditions named. In cells and extracts the contact can be indirect. Some binding calls cover weakened binding; strength is not graded here. Sequences can lack the tags named with a protein.

In this experiment the target is T1, Klp5-3FLAG (fission yeast) (UniProt O14343).
T1 sequence: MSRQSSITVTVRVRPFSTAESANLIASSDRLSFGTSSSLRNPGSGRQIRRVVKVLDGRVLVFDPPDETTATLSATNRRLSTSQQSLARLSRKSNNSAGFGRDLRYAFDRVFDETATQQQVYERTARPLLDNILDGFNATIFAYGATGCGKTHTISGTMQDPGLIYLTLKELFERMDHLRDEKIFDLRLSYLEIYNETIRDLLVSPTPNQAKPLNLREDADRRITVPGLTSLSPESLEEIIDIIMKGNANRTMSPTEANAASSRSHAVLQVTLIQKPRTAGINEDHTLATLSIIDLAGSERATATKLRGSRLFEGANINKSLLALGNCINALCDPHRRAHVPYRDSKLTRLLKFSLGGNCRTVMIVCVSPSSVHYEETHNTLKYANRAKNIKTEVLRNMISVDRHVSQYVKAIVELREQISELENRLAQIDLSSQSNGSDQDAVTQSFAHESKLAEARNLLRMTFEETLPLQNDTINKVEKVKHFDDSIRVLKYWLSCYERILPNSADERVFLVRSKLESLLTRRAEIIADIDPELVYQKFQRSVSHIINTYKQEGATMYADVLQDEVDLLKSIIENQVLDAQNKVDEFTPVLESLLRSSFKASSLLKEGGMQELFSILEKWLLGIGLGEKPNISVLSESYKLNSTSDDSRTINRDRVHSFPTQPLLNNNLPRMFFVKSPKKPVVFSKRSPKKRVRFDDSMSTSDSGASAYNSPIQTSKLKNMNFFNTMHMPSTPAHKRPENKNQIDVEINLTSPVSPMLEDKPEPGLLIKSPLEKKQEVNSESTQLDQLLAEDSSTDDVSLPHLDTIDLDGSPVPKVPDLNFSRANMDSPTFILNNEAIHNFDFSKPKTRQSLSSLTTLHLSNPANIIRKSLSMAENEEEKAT
Put plainly: co-IP; protein extracts (4 mg or 8 mg) of metaphase-arrested cut9-665 cells (36°C, 2.5 hours) added to protein A Dynabeads coated with anti-Flag antibodies; blotted with anti-Flag and anti-Myc.

B1: Alp7-Myc (protein, UniProt Q9URY2 1-474)
chain: MSDIVSSSTDYSRRSPSSSSIGTNETDHTGFHEKRQGASSESLIPPAQRSSEESMPAPKLFPKLTSKPNPQLNLKDTLNKRVSDRLQALELNKSFDFSGTPRPMHPISHPLSQHKTPEFKHRKRNVESILTPKNPSLFSSSNAASQRGSLNTAPSNFAYSHSSSLQTSASSRPPVLSNGSFPRQTNTAPLNPPVHLKDNIRNSATPSTSQADIPTQYPINSTQKQQAKYEAEIEGYKAKLAGTYHEISVLQNTIVNVSGQLIAVNDQLQQLRSGKASTSPSTKDTNMRLVEGHNEETLALQRGKYTQEEVDKLIQERMEKVAEDLHAQYSAKHTQKINAFKANYARKYEATIQELQNQIGTAPNAPKISNSNWEEERRALKADNQTLQKQLEKAIQERQDMSDFLNNFKADMAKSDKLLMQQQSQQTGDLETLRLQLQALQEELRVEREERQQLIQMSEDLVIAMDQLNLEQKS
For the molecule B1, the binding result is reported as “binds”.
